Results deposited as PubChem BioAssay AID1259405 (NCATS, 2018)
The whole screen tested about 50,000 reagents; shown is a random part of them. In the full data, about 4,000 (8%) were called active. 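Mouse siRNA library applied to hamster cells; one well for each siRNA.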 The numbers tell different reagents against one gene apart.

- Test: 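Mouse-designed siRNAs used to find CHO productivity engineering targets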 (primary screen)
- System: Chinese hamster CHO-K1 ovary cells with stable secreted eGFP expression
- Reagent: single siRNA against mouse genes, 0.8 pmol siRNA per well (2 µl of 400 nM stock)
- Duration: 3 days
- Measured: 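Percent of the per-plate non-targeting control median for intracellular GFP per well by laser scanning cytometry and for cell viability by ATP luminescence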
- Reading the numbers: GFP, % of control: higher = more GFP per well, higher productivity; viability (ATP), % of control: higher = more viable cells (more ATP)
- Active means: 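a knock-down is called active if GFP reaches 120% or more of non-targeting control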

no.	target	reagent no.	GFP, % of control	viability (ATP), % of control	call
1	Pcdhb10	1	123	67.2	active
2	Pcdhb10	2	67.4	71.4	inactive
3	Pcdhb10	3	65.5	82.4	inactive
4	Slc22a2	1	66.5	74.3	inactive
5	Slc22a2	2	64.8	63.7	inactive
6	Slc22a2	3	85.2	85.2	inactive
7	Aggf1	1	79.4	75.1	inactive
8	Aggf1	2	45.9	94.6	inactive
9	Aggf1	3	82.9	99.4	inactive
10	Mef2c	1	56.2	65.8	inactive
11	Mef2c	2	35.2	41.3	inactive
12	Mef2c	3	79.6	86.6	inactive
13	1700001O22Rik	1	128	112	active
14	1700001O22Rik	2	84.3	64.8	inactive
15	1700001O22Rik	3	91.2	40.1	inactive
16	Cox6b2	1	163	145	active
17	Cox6b2	2	160	89.1	active
18	Cox6b2	3	118	79.8	inactive
19	Cox6b2	4	82	83.3	inactive
20	Cox6b2	5	66.8	95.6	inactive
21	Cox6b2	6	125	77	active
22	Pramel27	1	93.1	117	inactive
23	Pramel27	2	90.2	119	inactive
24	Pramel27	3	73.9	56.7	inactive
25	Kera	1	94.9	56.6	inactive
26	Kera	2	103	68.6	inactive
27	Kera	3	67.5	73.5	inactive
28	Inhba	1	93.4	92.9	inactive
29	Inhba	2	63.9	78.6	inactive
30	Inhba	3	120	125	active
31	Ngf	1	33.8	56.2	inactive
32	Ngf	2	108	80.8	inactive
33	Ngf	3	90.1	123	inactive
34	Phf19	1	53.2	73.6	inactive
35	Phf19	2	53.8	67.6	inactive
36	Phf19	3	83.6	69.7	inactive
37	Pnkp	1	55.3	84.6	inactive
38	Dph5	1	116	88.8	inactive
39	Dph5	2	78.7	117	inactive
40	Dph5	3	106	114	inactive
41	Scaf11	1	92.4	84	inactive
42	Scaf11	2	75.4	64.1	inactive
43	Scaf11	3	29.7	57.8	inactive
44	Adcy6	1	43.9	60.6	inactive
45	Adcy6	2	54.4	77.6	inactive
46	Adcy6	3	70.5	75.2	inactive
47	Tm4sf1	1	37.1	45.7	inactive
48	Tm4sf1	2	56.1	77.7	inactive
49	Tm4sf1	3	60.5	72.1	inactive
50	Kdm5d	1	68.1	105	inactive
51	Kdm5d	2	91.7	86.8	inactive
52	Kdm5d	3	88.9	94.3	inactive
53	Pgp	1	61.6	34.5	inactive
54	Pgp	2	88.6	81.2	inactive
55	Pgp	3	65.9	79.6	inactive
56	Wnt10a	1	116	74.7	inactive
57	Wnt10a	2	62.7	60	inactive
58	Wnt10a	3	102	65.7	inactive
59	Tmco6	1	22.8	29.4	inactive
60	Tmco6	2	64.5	60.7	inactive
61	Tmco6	3	92.2	55.8	inactive
62	Or2w4	1	69.6	52.6	inactive
63	Or2w4	2	79.2	88	inactive
64	Or2w4	3	39.5	89.6	inactive
65	Piwil1	1	83.1	72.1	inactive
66	Piwil1	2	101	94	inactive
67	Piwil1	3	86.3	81.6	inactive
68	Msr1	1	149	78.9	active
69	Msr1	2	83.8	67	inactive
70	Msr1	3	106	101	inactive
71	Wdr86	1	70.2	64.2	inactive
72	Wdr86	2	88.7	79	inactive
73	Wdr86	3	52.5	37.4	inactive
74	H1f3	1	75.6	40.3	inactive
75	H1f3	2	90.5	102	inactive
76	H1f3	3	67.2	49.7	inactive
77	Slco2a1	1	70.4	87.5	inactive
78	Slco2a1	2	111	85.4	inactive
79	Slco2a1	3	68.3	104	inactive
80	Rnf186	1	122	56.2	active
81	Rnf186	2	44.3	33.6	inactive
82	Rnf186	3	41.8	58.3	inactive
83	Or8b51	1	41.1	37.6	inactive
84	Or8b51	2	90.5	56	inactive
85	Or8b51	3	71.3	62.1	inactive

Copied from above (4 entries):
no.	target	reagent no.	GFP, % of control	viability (ATP), % of control	call
63	Or2w4	2	79.2	88	inactive
64	Or2w4	3	39.5	89.6	inactive
65	Piwil1	1	83.1	72.1	inactive
66	Piwil1	2	101	94	inactive
